In PubChem BioAssay (EPA / NIEHS):
Where “and” joins values, the source holds several entries; their conditions need not be identical. Identical values can stand only once. This list was built around the results that the source calls inconclusive (neither active nor inactive); the mix of calls is not that of the screen. Potencies of inconclusive entries are doubtful fits and often do not repeat. Calls of active or inactive are those of the source. How the source made its calls: active means hit-call score of the fitted dose curve at least 0.9, where 1 is the maximum; inconclusive means response in the unintended direction; inactive means score below 0.9.

assay: ATG_M_19_TRANS: Attagene TRANS-FACTORIAL HepG2 Assay for M19 Transcription Factor (Internal Marker) (AID 2282974); conditions: HepG2 Attagene TRANS-FACTORIAL M19 internal marker reporter
Procedure: ATG_TRANS is a cell-based, multiplexed-readout assay that uses HepG2, a human liver cell line, with measurements taken at 24 hours after chemical dosing in a 24-well plate.ATG_M_19_TRANS is one of 30 assay component(s) measured or calculated from the ATG_TRANS assay. It is designed to make measurements of mRNA induction, a form of inducible reporter, as detected with fluorescence intensity signals by Reverse transcription polymerase chain reaction (RT-PCR) and Capillary electrophoresis technology.Data from the assay component ATG_M_19_TRANS was analyzed into 1 assay endpoint. This assay endpoint, ATG_M_19_TRANS, was analyzed in the positive analysis fitting direction relative to DMSO as the negative control and baseline of activity. Using a type of inducible reporter, measures of mRNA for gain-of-signal activity can be used to understand the background control at the transcription factor-level as they relate to the gene . Furthermore, this assay endpoint can be referred to as a secondary readout, because this assay has produced multiple assay endpoints where this one serves a background control function. To generalize the intended target to other relatable targets, this assay endpoint is annotated to the background measurement intended target family, where the subfamily is internal marker.
Human liver HepG2 cells are transiently transfected with multiple reporter transcription units (MRTUs) in 6-well plates using FuGene 6 reagent (Roche; 3 ml FuGene/1 mg DNA). The MRTU constructs are regulated by a cis-regulating element (promoter). […] A major difference between the CIS and TRANS system is that in CIS activities of endogenous TFs are measured, whereas the TRANS assay evaluates changes in activities of exogenous, chimeric NR-Gal4 proteins. […] At the end of 24 hour incubation, total RNA was isolated using TriZol reagent (Invitrogen). The isolated RNA is then reverse-transcribed using oligo(dT) primer and Mo-MLV reverse transcriptase (Invitrogen) with DNAse I (Ambion) treatment for 30 min. The one-tenth of the produced cDNA was amplified by PCR using Taq DNA polymerase (Invitrogen) and two reporter sequence-specific primers. The PCR products were fluorescently labeled by primer extension with 6-arboxyfluorescein (6-FAM) 5'-labeled reporter sequence-specific primer (2 min at 95 C, 20 s at 68 C and 10 min at 72 C) and these products were digested with 5U of HpaI (New England Biolabs) for 2h at 37 C. The fragments were purified using Qiaquick PCR columns (Qiagen), analyzed on an ABI 3130xL genetic analyzer (Applied Biosystems) with peak positions identified by using a set of X-rhodamine (ROX)-labeled MapMarker1000 molecular weight standards (BioVentures). The raw capillary electrophoresis data was processed using Attagraph software (Attagene).

SMILES | outcome | AC50
C=CC(C)(CCC=C(C)C)OC(=O)CC(C)C (stereo not given) | inactive | –
CCCCCCOC(=O)C(C)CC (stereo not given) | inactive | –
CCCOCCC | – | inconclusive: 100 µM
CC1OC1C1CCC2(C)OC2C1 (stereo not given) | inactive | –
CC(CCC(=O)O)(c1ccc(O)cc1)c1ccc(O)cc1 | – | inconclusive: 53.1 µM
CCCCCCC(C)(C)C(=O)O | – | inconclusive: 100 µM
C/C=C/C(=O)C1=C(C)CCCC1(C)C | – | inconclusive: 100 µM
O=C1CCC(C2CCCCC2)CC1 | – | inconclusive: 100 µM and inconclusive: 181 µM
O=C(O)Cc1cc(I)c(Oc2cc(I)c(O)c(I)c2)c(I)c1 | – | inconclusive: 0.823 nM and inconclusive: 19.8 µM
COC(=O)c1ccc(C(=O)OC)cc1 | inactive | –
O=C(O)c1cccc(C(=O)O)n1 | – | inconclusive: 100 µM
O=S(=O)(OCC(F)(F)F)C(F)(F)C(F)(F)C(F)(F)C(F)(F)F | inactive | –
COc1ccc(N)c(C)c1 | inactive | –
CCCCCCC1(C)CCC(=O)O1 (stereo not given) | – | inconclusive: 100 µM
CCCC(=O)OC/C=C(\C)CCC=C(C)C | inactive | –
CCCCCCCCCCCCCCOS(=O)(=O)O | – | inconclusive: 0.0978 µM
S=P(N1CC1)(N1CC1)N1CC1 | inactive | –
NC(=O)c1ccccc1O | inactive | –
NC(N)=S | – | inconclusive: 149 µM

SMILES | outcome | AC50
CCCCC/C=C\C/C=C\CCCCCCCC(=O)OC | – | inconclusive: 0.116 µM
CC1=C(C)S(=O)(=O)CCS1(=O)=O | – | inconclusive: 0.00914 µM
CC(C)CC(=O)O | – | inconclusive: 100 µM
OCCCC(F)(F)C(F)(F)C(F)(F)C(F)(F)C(F)(F)C(F)(F)C(F)(F)C(F)(F)F | – | inconclusive: 17.1 µM
CO[Si](C)(C)OC | inactive | –
O=C(O)c1ccc(C(=O)O)c(C(=O)O)c1 | – | inconclusive: 1.39 µM
c1ccc2[nH]c(-c3cscn3)nc2c1 | inactive | inconclusive: 20.9 µM
CC(CO)(CO)[N+](=O)[O-] | inactive | –
OC[C@H]1O[C@@H](O[C@H]2[C@H](O)[C@@H](O)[C@H](O)O[C@@H]2CO)[C@H](O)[C@@H](O)[C@H]1O | inactive | –
C=CCOCC(CO)(CO)CO | inactive | –
C=C[C@@]1(C)CC(=O)[C@]2(O)[C@@]3(C)[C@@H](O)CCC(C)(C)[C@@H]3[C@H](O)[C@H](OC(C)=O)[C@@]2(C)O1 | – | inconclusive: 100 µM
O=C(O)c1ccc2c(c1)nc(C(=O)NC1CCN(C3CC3)CC1)n2Cc1cc(-c2ccc(Cl)s2)on1 | – | inconclusive: 0.0219 µM
N#CCCNCCC#N | – | inconclusive: 100 µM
CCCc1cc(=O)[nH]c(=S)[nH]1 | inactive | inconclusive: 100 µM
CCCC1CCOC(C)S1 (stereo not given) | inactive | –
CC(C)CCCC(C)CC=O (stereo not given) | inactive | –
O=C(O)c1ccccc1-n1cc(C(=O)O)c(=O)c2cc(Nc3c(F)cc(F)cc3Cl)c(Cl)cc21 | – | inconclusive: 100 µM
COC(OC)C(C)c1ccccc1 (stereo not given) | – | inconclusive: 100 µM
CCCCCCCCCCCCCCCCO | – | inconclusive: 100 µM
